The results in this text go back to PubChem BioAssay AID256 (DTP/NCI, 2004).

In the experiment the test system is CD2F1 mice, L1210 leukemia ip, survival T/C. Briefly: NCI In Vivo Anticancer Drug Screen. Data for tumor model L1210 Leukemia (intraperitoneal) in CD2F1 (CDF1) mice. Conditions: higher T/C = longer survival. The essentials:
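Read-out first: treated-group measurement over vehicle-control measurement, expressed as a ratio. Animals bore a transplanted tumor line and were dosed with compound or vehicle.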

The mark [1] stands for this setting: T/C endpoint: median survival time, dose: 200.0 mg/kg/injection, schedule: Q04DX003 (ip), vehicle: saline with Tween-80.

The list does not hold the whole screen: it gathers tests that were run many times, whatever their T/C, doses with no T/C, and many T/C values between a quarter and a half above the control. Other doses and runs of a compound stand elsewhere. T/C: endpoint of the treated group in % of that of the vehicle group. Some entries give survivors of the animals treated and no T/C: the source files T/C as zero there, which appears to mark a toxic dose or a test without result, not a measured value. Some survivor counts are full or nearly so, which does not show that the dose was tolerated: survival well below the control is almost never listed, so the zero probably covers shortened survival too. Survivors were counted at the toxicity check, usually on the fifth day, unless a day is given; later deaths do not show. Schedule codes are those of the source, read here as Q, the interval in days (D) or hours (H), X, the number of doses. Some doses were run more than once; the values are given in rising order. Some schedule codes hold Z or #, which are not explained here. Where survival is the endpoint, this PubChem deposit counts one and a half times the control or more as active, and values a quarter to a half above the control carry no call in these data; other NCI protocols may use other cut-offs. Additions like (4×) stand for listed records that agree. Some T/C values carry the count of animals alive at the toxicity check (mostly the fifth day); where none is given, no animal had died by that day.

Turning to `O=P1(N2CC2)OCCCN1CCCl` (stereo unspecified), the survivor count (T/C endpoint: mean survival time, dose: 60.0 mg/kg/injection, schedule: Q01DX001 (ip), vehicle: distilled water + Tween-80) was 0 of 6; the survivor count (T/C endpoint: mean survival time, dose: 125.0 mg/kg/injection, schedule: Q01DX001 (ip), vehicle: saline with Tween-80) was 2 of 6; the survivor count (T/C endpoint: mean survival time, dose: 250.0 mg/kg/injection, schedule: Q01DX001 (ip), vehicle: saline with Tween-80) is listed as 0 of 6; the survivor count (T/C endpoint: mean survival time, dose: 500.0 mg/kg/injection, schedule: Q01DX001 (ip), vehicle: saline with Tween-80) was 0 of 6.

For the compound `Nc1cc2c3c(cccc3c1)C(=O)N(CCN1CCCC1)C2=O`, the T/C (T/C endpoint: mean survival time, dose: 50.0 mg/kg/injection, schedule: Q01DX009 (ip), vehicle: saline with Tween-80) is 131 % of control (2×); the T/C (T/C endpoint: mean survival time, dose: 100.0 mg/kg/injection, schedule: Q01DX009 (ip), vehicle: saline with Tween-80) is 125 and 138 % of control [8 of 10 alive].

With `CSc1ncnc2c1c(C#N)cn2C1OC(CO)C(O)C1O` (stereo unspecified), the T/C runs as follows: (T/C endpoint: mean survival time, dose: 11.0 mg/kg/injection, schedule: Q01DX009 (ip), vehicle: saline) 136 % of control; (T/C endpoint: mean survival time, dose: 19.0 mg/kg/injection, schedule: Q01DX009 (ip), vehicle: saline) 146 % of control; (T/C endpoint: mean survival time, dose: 100.0 mg/kg/injection, schedule: Q01DX001 (ip), vehicle: saline) 127 % of control; (T/C endpoint: mean survival time, dose: 200.0 mg/kg/injection, schedule: Q01DX001 (ip), vehicle: saline) 141 % of control. Moreover, the survivor count (T/C endpoint: mean survival time, dose: 400.0 mg/kg/injection, schedule: Q01DX001 (ip), vehicle: saline) is recorded as 2 of 6.

Take `CCN(CC)C(=O)c1ccccc1`: the survivor count (T/C endpoint: mean survival time, dose: 400.0 mg/kg/injection, schedule: Q01DX009 (ip), vehicle: saline) is recorded as 1 of 6.

For the compound `COC(=O)C(c1ccccc1)C(c1ccccc1)c1ccccc1` (stereo unspecified), the survivor count (T/C endpoint: mean survival time, dose: 400.0 mg/kg/injection, schedule: Q04DX002 (ip), vehicle: saline with Tween-80) is 3 of 3.

Regarding `Cc1ccc2c(ccc(CC(=S)[S-])[n+]2C)c1`, under “T/C endpoint: mean survival time, dose: 200.0 mg/kg/injection, schedule: Q01DX009 (ip), vehicle: Klucel (hydroxypropylcellulose) (HPC)”, the survivor count is 0 of 6 and 5 of 6.

Consider `CCC(=O)O.CCC(=O)O.CCC(=O)O.CCC(=O)O.O=P1(N(CCCl)CCCl)NCCCO1.O=P1(N(CCCl)CCCl)NCCCO1.[Rh].[Rh]` (stereo unspecified), for which the survivor count (T/C endpoint: mean survival time, dose: 8.0 mg/kg/injection, schedule: Q01DX001 (ip), vehicle: water) is reported as 3 of 6; the survivor count (T/C endpoint: mean survival time, dose: 15.63 mg/kg/injection, schedule: Q01DX001 (ip), vehicle: water) is reported as 0 of 6; the survivor count (T/C endpoint: mean survival time, dose: 31.25 mg/kg/injection, schedule: Q01DX001 (ip), vehicle: water) was 0 of 6; the survivor count (T/C endpoint: mean survival time, dose: 62.5 mg/kg/injection, schedule: Q01DX001 (ip), vehicle: water) is 0 of 6; the survivor count (T/C endpoint: mean survival time, dose: 125.0 mg/kg/injection, schedule: Q01DX001 (ip), vehicle: water) is given as 0 of 6; the survivor count (T/C endpoint: mean survival time, dose: 250.0 mg/kg/injection, schedule: Q01DX001 (ip), vehicle: water) is listed as 0 of 6. In addition, the survivor count (T/C endpoint: mean survival time, dose: 500.0 mg/kg/injection, schedule: Q01DX001 (ip), vehicle: water) is reported as 0 of 6.

With `O=C(C[n+]1cc2ccccc2cc1/C=N/O)c1ccccc1`, the survivor count (T/C endpoint: mean survival time, dose: 400.0 mg/kg/injection, schedule: Q04DX003 (ip), vehicle: saline with Tween-80) is given as 2 of 6.

On to `CC(C)(C[NH-])C[NH-].[Cl][Pt+2]([Cl])([Cl])[Cl]`, for which the T/C is 125 % of control (T/C endpoint: median survival time, dose: 0.4 mg/kg/injection, schedule: Q04DX003 (ip), vehicle: water) and 138, 147, 148 % of control (T/C endpoint: median survival time, dose: 0.8 mg/kg/injection, schedule: Q04DX003 (ip), vehicle: water). Also, the survivor count (T/C endpoint: median survival time, dose: 6.25 mg/kg/injection, schedule: Q04DX003 (ip), vehicle: distilled water + Tween-80) was 6 of 6; the survivor count (T/C endpoint: median survival time, dose: 6.4 mg/kg/injection, schedule: Q04DX003 (ip), vehicle: water) was 5 of 6 and 6 of 6; the survivor count (T/C endpoint: median survival time, dose: 12.5 mg/kg/injection, schedule: Q04DX003 (ip), vehicle: distilled water + Tween-80) is reported as 5 of 6; the survivor count (T/C endpoint: median survival time, dose: 25.0 mg/kg/injection, schedule: Q04DX003 (ip), vehicle: distilled water + Tween-80) is 3 of 6; the survivor count (T/C endpoint: median survival time, dose: 50.0 mg/kg/injection, schedule: Q04DX003 (ip), vehicle: distilled water + Tween-80) was 0 of 6; the survivor count (T/C endpoint: median survival time, dose: 100.0 mg/kg/injection, schedule: Q04DX003 (ip), vehicle: distilled water + Tween-80) is given as 0 of 6. Also, the survivor count (T/C endpoint: median survival time, dose: 200.0 mg/kg/injection, schedule: Q04DX003 (ip), vehicle: distilled water + Tween-80) was 0 of 6.

For the compound `CCN(CC)CCOc1ccc(NC(=O)c2ccccc2)cc1`, the survivor count by setting is: (T/C endpoint: mean survival time, dose: 100.0 mg/kg/injection, schedule: Q04DX003 (ip), vehicle: saline) 0 of 3; (T/C endpoint: mean survival time, dose: 200.0 mg/kg/injection, schedule: Q04DX003 (ip), vehicle: saline) 0 of 3; (T/C endpoint: mean survival time, dose: 400.0 mg/kg/injection, schedule: Q04DX003 (ip), vehicle: saline) 0 of 3.

For `O=C(NCCCCCCCCNC(=O)N1CC1)N1CC1`, the survivor count was 1 of 6 (T/C endpoint: mean survival time, dose: 17.0 mg/kg/injection, schedule: Q01DX001 (ip), vehicle: carboxymethylcellulose (CMC)) and 1 of 6 (T/C endpoint: mean survival time, dose: 25.5 mg/kg/injection, schedule: Q01DX001 (ip), vehicle: carboxymethylcellulose (CMC)).

Take `COc1ccc2nc3cc(Cl)ccc3c(NCCC[N+](C)(C)CCCCCCCCCCCCCCCC[N+](C)(C)CCCNc3c4ccc(Cl)cc4nc4ccc(OC)cc34)c2c1`: the survivor count (T/C endpoint: mean survival time, dose: 100.0 mg/kg/injection, schedule: Q01DX009 (ip), vehicle: other) is reported as 0 of 6; the survivor count (T/C endpoint: mean survival time, dose: 200.0 mg/kg/injection, schedule: Q01DX009 (ip), vehicle: other) is 0 of 6; the survivor count (T/C endpoint: mean survival time, dose: 400.0 mg/kg/injection, schedule: Q01DX009 (ip), vehicle: other) is given as 0 of 6.

Take `CCN1CCS/C1=C\C=C\C1=[N+](CC)CCS1`: the survivor count (T/C endpoint: mean survival time, dose: 5.0 mg/kg/injection, schedule: Q01DX001 (ip), vehicle: other) is reported as 1 of 6; the survivor count (T/C endpoint: mean survival time, dose: 75.0 mg/kg/injection, schedule: Q01DX001 (ip), vehicle: other) is on record as 0 of 6; the survivor count (T/C endpoint: mean survival time, dose: 150.0 mg/kg/injection, schedule: Q01DX001 (ip), vehicle: other) is reported as 0 of 6; the survivor count (T/C endpoint: mean survival time, dose: 300.0 mg/kg/injection, schedule: Q01DX001 (ip), vehicle: other) is reported as 0 of 6.

Regarding `O=C1C(F)=C(F)C(=O)C(F)=C1F`, the survivor count (T/C endpoint: mean survival time, dose: 12.5 mg/kg/injection, schedule: Q01DX009 (ip), vehicle: Klucel (hydroxypropylcellulose) (HPC)) is given as 2 of 6; the survivor count (T/C endpoint: mean survival time, dose: 25.0 mg/kg/injection, schedule: Q01DX009 (ip), vehicle: Klucel (hydroxypropylcellulose) (HPC)) was 0 of 6; the survivor count (T/C endpoint: mean survival time, dose: 50.0 mg/kg/injection, schedule: Q01DX009 (ip), vehicle: Klucel (hydroxypropylcellulose) (HPC)) is given as 0 of 6; the survivor count (T/C endpoint: mean survival time, dose: 100.0 mg/kg/injection, schedule: Q01DX009 (ip), vehicle: Klucel (hydroxypropylcellulose) (HPC)) is recorded as 0 of 6.

Take `Nc1cc(OCc2ccccc2)c2n[nH]nc2n1`: for the setting “T/C endpoint: mean survival time, dose: 100.0 mg/kg/injection, schedule: Q01DX005 (ip), vehicle: other”, the survivor count is recorded as 3 of 3.

For the compound `CC(C)NCC(O)c1ccc(O)c(O)c1.[Pt].c1ccc([PH+](c2ccccc2)c2ccccc2)cc1.c1ccc([PH+](c2ccccc2)c2ccccc2)cc1`, under setting [1], the survivor count was 3 of 6.

`CNc1nc(NC)nc(NC)n1`: for the setting “T/C endpoint: mean survival time, dose: 400.0 mg/kg/injection, schedule: Q01DX009 (ip), vehicle: Klucel (hydroxypropylcellulose) (HPC)”, the survivor count is listed as 0 of 6.

`CN(C)c1ccc(N=Nc2cccc(C(=O)[O-])c2)cc1.CN(C)c1ccc(N=Nc2cccc(C(=O)[O-])c2)cc1.NC1CCCCC1N.O=[N+]([O-])O.[Pt+4]`: the T/C (T/C endpoint: median survival time, dose: 25.0 mg/kg/injection, schedule: Q04DX003 (ip), vehicle: saline with Tween-80) was 128 % of control; the T/C (T/C endpoint: median survival time, dose: 50.0 mg/kg/injection, schedule: Q04DX003 (ip), vehicle: saline with Tween-80) was 128 and 142 % of control; the T/C under setting [1] was 141 % of control.

For `Nc1nc(N)nc(Nc2ccc(Sc3ccc(Nc4nc(N)nc(N)n4)cc3)cc2)n1`, the survivor count reads like this: (T/C endpoint: mean survival time, dose: 266.0 mg/kg/injection, schedule: Q01DX Z (ip), vehicle: saline) 3 of 6; (T/C endpoint: mean survival time, dose: 400.0 mg/kg/injection, schedule: Q01DX Z (ip), vehicle: saline) 1 of 6; (T/C endpoint: mean survival time, dose: 600.0 mg/kg/injection, schedule: Q01DX Z (ip), vehicle: saline) 2 of 6.
